The results in this text go back to publication PMC6175878, “ROS-induced R loops trigger a transcription-coupled but BRCA1/2-independent homologous recombination pathway through CSB” (Nature Communications, 2018).

Protein sequences, listed by entry. Tags and fused reporters are not part of them. Residues count along the entry.
UniProt Q03468, residues 337-509: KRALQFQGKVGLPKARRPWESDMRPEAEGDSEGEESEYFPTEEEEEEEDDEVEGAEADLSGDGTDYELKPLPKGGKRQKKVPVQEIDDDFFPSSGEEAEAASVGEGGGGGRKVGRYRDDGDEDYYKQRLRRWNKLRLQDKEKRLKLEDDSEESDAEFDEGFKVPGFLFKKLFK

No constants are given. Whether binding was seen depends on the method and setting. In cells and extracts the contact can be indirect. Some binding calls cover weakened binding; strength is not graded here. Where a sequence is shown, tags or fusion partners need not be part of it.

The experiment addresses GFP-CSB-AD (CSB acidic domain, 337-509 a.a.) (human) (UniProt Q03468). In words: co-IP; anti-GFP immunoprecipitation (protein G-Sepharose) from lysates of co-transfected Flp-in 293 cells; lysis buffer 150 mM NaCl, 1% NP-40, 4 °C overnight.

B1: Myc-RAD52 (protein, UniProt P43351 1-418)
chain: MSGTEEAILGGRDSHPAAGGGSVLCFGQCQYTAEEYQAIQKALRQRLGPEYISSRMAGGGQKVCYIEGHRVINLANEMFGYNGWAHSITQQNVDFVDLNNGKFYVGVCAFVRVQLKDGSYHEDVGYGVSEGLKSKALSLEKARKEAVTDGLKRALRSFGNALGNCILDKDYLRSLNKLPRQLPLEVDLTKAKRQDLEPSVEEARYNSCRPNMALGHPQLQQVTSPSRPSHAVIPADQDCSSRSLSSSAVESEATHQRKLRQKQLQQQFRERMEKQQVRVSTPSAEKSEAAPPAPPVTHSTPVTVSEPLLEKDFLAGVTQELIKTLEDNSEKWAVTPDAGDGVVKPSSRADPAQTSDTLALNNQMVTQNRTPHSVCHQKPQAKSGSWDLQTYSADQRTTGNWESHRKSQDMKKRKYDPS
In the case of B1, the binding result is listed as “binds”.
